This data set relates to Panc-1 cells. Nature of the data set: Propidium iodide-based fluorescence cytotoxicity assay. As to conditions: single agent. In kind it is cell-based. How it is done:
The combination of P276-00 and Gemcitabine was screened for its synergistic effect in Panc-1 cells using propidium iodide based fluorescence cytotoxicity assay.
Test System: The Panc-1 cell line was procured from ATCC (American Tissue type Culture Collection), USA. Catalog number: CRL-1469 and the frozen vial was stored in liquid nitrogen container. Propidium iodide dye was procured from Sigma-Aldrich, USA. Catalog number: P-4170-100 mg and it was stored at 2-8° C.
Method: Panc-1 cells were seeded at a density of 2000 cells/well, in a 200 μL in tissue culture grade 96 well plate and allowed to recover for 24 hrs in a humidified 5%±0.2 CO2 incubator at 37° C.±0.5° C. After 24 hrs, 1 μL of 200 X (200 times higher than required concentration is denoted as 200×) compound (dissolved in neat DMSO), as per Table 1 or 2 was added to the wells. The final DMSO concentration was 0.5% in wells. The plate was incubated for 24 hrs in humidified 5%±0.2 CO2 incubator at 37±0.5° C.
After 24 hrs Minimum Essential Medium (MEM) from the Gemcitabine treated wells was removed and washed two times with fresh MEM and followed by addition of 200 μL of fresh MEM per well. 1 μL of 200× (200 times higher than required concentration is denoted as 200×) compound (dissolved in neat DMSO) was then added as per the Table 1 and 2 designs. The final DMSO concentration was 0.5% in wells which also served as the vehicle control for the study. After 72 hrs the plate was removed from CO2 incubator and spent MEM aspirated from the wells and supplemented with fresh MEM. This was followed by addition of 25 μL of propidium iodide (50 μg/ml in medium) per well. The same plate was frozen at −80° C. for 24 hrs and then thawed and allowed to come to room temperature. The fluorescence at a wavelength of 530 nm excitation and 620 nm emission was read.
The percent cytotoxicity was calculated using the following formula

With `CN1CC[C@@H](c2c(O)cc(O)c3c(=O)cc(-c4ccccc4Cl)oc23)[C@@H]1CO.Cl` (relative stereo) [P276-00, (+)-trans-2-(2-Chloro-phenyl)-5,7-dihydroxy-8-(2-hydroxy-methyl-1-methyl-pyrrolidin-3-y1)-chromen-4-one hydrochloride], the “Fluorescence Unit” value (60 nM) was determined as 24558; the “Fluorescence Unit” value (120 nM) is given as 22768; the “Fluorescence Unit” value (240 nM) was 22212; the “Fluorescence Unit” value (480 nM) was determined as 18831; the “Fluorescence Unit” value (960 nM) is 15416.

Turning to `Nc1ccn([C@@H]2O[C@H](CO)[C@@H](O)C2(F)F)c(=O)n1` [Gemcitabine, 2′, 2′-difluorodeoxycytidine], the “Fluorescence Unit” value (0.1 nM) was found to be 31455.

These data come from patent US20100152129A1 (priority 2008, published 2010).
